Results taken from the supplement of paper PMC3334620.
The full ranking holds about 33,000 sequences; the median of “E-score (-0.5 to 0.5)” is about -0.0034, and the highest 2% start at about 0.25. The list shows a part of the results.

The sequences below were run against T1, Yap3 (UniProt P38749) (assay: PBM E-score (8-mer binding enrichment) (E-score (-0.5 to 0.5)); higher = stronger / more preferred TF binding). Details: protein concentration: 100 nM; construct: GST-full length.
T1 sequence: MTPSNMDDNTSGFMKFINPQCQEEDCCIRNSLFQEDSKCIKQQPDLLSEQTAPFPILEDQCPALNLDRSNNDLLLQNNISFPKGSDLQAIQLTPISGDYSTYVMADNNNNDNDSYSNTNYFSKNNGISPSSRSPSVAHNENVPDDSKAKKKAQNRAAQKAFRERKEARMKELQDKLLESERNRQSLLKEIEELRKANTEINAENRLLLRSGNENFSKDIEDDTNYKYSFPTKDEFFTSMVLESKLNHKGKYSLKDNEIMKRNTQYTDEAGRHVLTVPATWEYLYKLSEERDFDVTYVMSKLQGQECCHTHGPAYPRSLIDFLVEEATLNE
In short: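 Using PURExpress in vitro transcription/translation, GST-tagged yeast transcription factors were made in full-length or DNA-binding-domain form. These were applied at about 100-200 nM to double-stranded universal all-10-mer Agilent arrays, and bound protein was detected with fluorescent anti-GST. Scans were normalised with masliner before the Universal PBM Analysis Suite assigned E-scores to ungapped eight-base words pooled with their reverse complements.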
For CCGATAAG, the “PBM E-score” value was -0.051. With CTATATGC the “PBM E-score” value was 0.124. With CGACGCTA the “PBM E-score” value was -0.0831. In the case of CATAAGCA, the “PBM E-score” value is reported as -0.0415. For TAACACCA, the “PBM E-score” value was 0.0743. In the case of AACATACT, the “PBM E-score” value is reported as 0.012. In the case of ACATGTTA, the “PBM E-score” value is reported as 0.203. For CTAGTATC, the “PBM E-score” value was 0.0604. With ACCGCAGA the “PBM E-score” value was -0.219. In the case of GCTTATAA, the “PBM E-score” value is reported as 0.129. In the case of AGGTCTAT, the “PBM E-score” value is reported as -0.0472. For AGATCAAT, the “PBM E-score” value was 0.0101. TCTCGAGA was tested, and the “PBM E-score” value was 0.112. With AGTCTGGC the “PBM E-score” value was -0.173. For CGAACATC, the “PBM E-score” value was 0.0605. With GTCCCAGA the “PBM E-score” value was -0.252. With ACGACAGT the “PBM E-score” value was -0.0361. For AATACTCA, the “PBM E-score” value was 0.16. For TACGCGCA, the “PBM E-score” value was 0.134. In the case of ATAGTGGC, the “PBM E-score” value is reported as 0.0134. In the case of ATAGGGGG, the “PBM E-score” value is reported as -0.194. AGTGGAGA was tested, and the “PBM E-score” value was 0.139. For CTCACGAC, the “PBM E-score” value was -0.195. In the case of CCCAAAAG, the “PBM E-score” value is reported as -0.165. AAGGCTGG was tested, and the “PBM E-score” value was -0.241. With GATTGAAA the “PBM E-score” value was 0.132. In the case of AGCCTTAG, the “PBM E-score” value is reported as -0.154. With AGGTGTGC the “PBM E-score” value was -0.0657. ACATTATG was tested, and the “PBM E-score” value was 0.211. CCCGTGCA was tested, and the “PBM E-score” value was -0.177. With CCTCAGAG the “PBM E-score” value was -0.258. For CATGCTGA, the “PBM E-score” value was 0.00121. CAACGCCA was tested, and the “PBM E-score” value was -0.0221. For TTCCCAAA, the “PBM E-score” value was 0.167. With TAAAAAGA the “PBM E-score” value was 0.151. In the case of ACGTGCGC, the “PBM E-score” value is reported as -0.0191. With CTTGACAC the “PBM E-score” value was -0.013. ATCCGGCC was tested, and the “PBM E-score” value was 0.101. For GCCCTATA, the “PBM E-score” value was -0.0486. In the case of ATACTGAA, the “PBM E-score” value is reported as 0.101. With AACACCTG the “PBM E-score” value was 0.11. For AGCCGCCG, the “PBM E-score” value was 0.0419. For ATCATACG, the “PBM E-score” value was 0.0769. AAGGAACG was tested, and the “PBM E-score” value was 0.0874. ACTTCAGG was tested, and the “PBM E-score” value was 0.0125. For AGAACATA, the “PBM E-score” value was 0.226. With ATACGAGC the “PBM E-score” value was 0.0821. With GTTCTGTA the “PBM E-score” value was 0.103. In the case of CATACTGG, the “PBM E-score” value is reported as -0.0447. In the case of ACCCCAGG, the “PBM E-score” value is reported as -0.307. With CTTAACGC the “PBM E-score” value was -0.0679. In the case of AACCAGCT, the “PBM E-score” value is reported as 0.122. AGTCAGAT was tested, and the “PBM E-score” value was 0.0191. With CTGGAACC the “PBM E-score” value was -0.218. GAAGCATC was tested, and the “PBM E-score” value was -0.103. For CCAATGGA, the “PBM E-score” value was -0.057. For CAGCTGGC, the “PBM E-score” value was -0.0595. In the case of CGTTGACC, the “PBM E-score” value is reported as 0.00959. With GAACATCA the “PBM E-score” value was 0.116. With GCTCGTCC the “PBM E-score” value was -0.0119. ATGTGTAA was tested, and the “PBM E-score” value was 0.0322. With CAGTGCGC the “PBM E-score” value was -0.191. For ACGACGAC, the “PBM E-score” value was -0.0916. With CGTGATTA the “PBM E-score” value was 0.176. With CCAGGCGC the “PBM E-score” value was -0.166. With GAGTTAAC the “PBM E-score” value was -0.0446. With AGGCTATG the “PBM E-score” value was -0.162. For AATCCATA, the “PBM E-score” value was 0.21. CGCGATAC was tested, and the “PBM E-score” value was 0.0418. For CGGAATCC, the “PBM E-score” value was -0.0654. In the case of CTCGTGCA, the “PBM E-score” value is reported as 0.00219. For ACTCACCG, the “PBM E-score” value was -0.125. For CGACTAGA, the “PBM E-score” value was 0.00357. CCAGGCTA was tested, and the “PBM E-score” value was -0.286. For AGAATCAC, the “PBM E-score” value was -0.0577. CCACGTCG was tested, and the “PBM E-score” value was -0.0823. For ACAACGGG, the “PBM E-score” value was 0.121. For GCTTACTA, the “PBM E-score” value was 0.237. With AGGCGAGA the “PBM E-score” value was -0.0505. AGAATGAG was tested, and the “PBM E-score” value was 0.0677. With ACAAGAAA the “PBM E-score” value was 0.268. ACCAGGAC was tested, and the “PBM E-score” value was -0.00979. For GACACAAA, the “PBM E-score” value was 0.115. For CCTTTCTA, the “PBM E-score” value was 0.0211. For CGTAGGAC, the “PBM E-score” value was -0.23. In the case of GTCCCAAA, the “PBM E-score” value is reported as -0.0311. With CTAACTAC the “PBM E-score” value was -0.0894. With TCACGTGA the “PBM E-score” value was -0.0216. CAGGCTCG was tested, and the “PBM E-score” value was -0.176. For GAAAATTA, the “PBM E-score” value was 0.207. For GGAACAAA, the “PBM E-score” value was 0.311. GCGACTCA was tested, and the “PBM E-score” value was 0.00382. CTTGAGCA was tested, and the “PBM E-score” value was -0.119. ACGGCAAT was tested, and the “PBM E-score” value was 0.285. For CCGACGGA, the “PBM E-score” value was -0.0851. With GTAGGACA the “PBM E-score” value was 0.00183. In the case of CATTTGAC, the “PBM E-score” value is reported as 0.0765. For CGTCTGTA, the “PBM E-score” value was -0.0799. With AGTATAAA the “PBM E-score” value was 0.304. In the case of GCGCTCAC, the “PBM E-score” value is reported as -0.0475. In the case of ACAATGGG, the “PBM E-score” value is reported as 0.141. With GAGCGGGC the “PBM E-score” value was -0.179. ATGGGCAC was tested, and the “PBM E-score” value was 0.0442. In the case of AGGATGAA, the “PBM E-score” value is reported as 0.0231. With AGTAGAGA the “PBM E-score” value was 0.0945. With CTAGGACC the “PBM E-score” value was -0.26. In the case of CCCGCGTA, the “PBM E-score” value is reported as -0.109. TACCGGAA was tested, and the “PBM E-score” value was 0.0506. With CTCGGTAC the “PBM E-score” value was -0.122. In the case of CCCGACAA, the “PBM E-score” value is reported as 0.137. GCGCTATA was tested, and the “PBM E-score” value was 0.178. For AGCTGCGG, the “PBM E-score” value was -0.282. With CACGTTAA the “PBM E-score” value was 0.0332. With TGAGACCA the “PBM E-score” value was -0.0671. For ATCTGTTG, the “PBM E-score” value was -0.0152. AAGCCTAG was tested, and the “PBM E-score” value was -0.0823. CTGCACGC was tested, and the “PBM E-score” value was -0.262. ACAGATCG was tested, and the “PBM E-score” value was 0.0514. With AAAGCTCA the “PBM E-score” value was -0.16. In the case of AGACAATC, the “PBM E-score” value is reported as 0.129. For AGTCCCGG, the “PBM E-score” value was -0.272. In the case of GAAACCCA, the “PBM E-score” value is reported as 0.125. For CTTAACAA, the “PBM E-score” value was 0.11. With CGAGATAG the “PBM E-score” value was -0.214. For CTTAAAAG, the “PBM E-score” value was -0.236. In the case of TAATCCGA, the “PBM E-score” value is reported as 0.0489. ACAAGATG was tested, and the “PBM E-score” value was 0.0992. In the case of AAGTTAGA, the “PBM E-score” value is reported as 0.136. In the case of ATTCGCAG, the “PBM E-score” value is reported as 0.121. With ACAAGGAG the “PBM E-score” value was 0.0399. In the case of AAATTGGC, the “PBM E-score” value is reported as 0.0935. For AACGGCTG, the “PBM E-score” value was -0.119. In the case of AGCGCGAG, the “PBM E-score” value is reported as 0.0432. For AAGCCACG, the “PBM E-score” value was 0.0099. CCATACAC was tested, and the “PBM E-score” value was 0.00771. For CCCAGTAA, the “PBM E-score” value was -0.0208. For ACCTGTAA, the “PBM E-score” value was 0.106. With ACAGAAAT the “PBM E-score” value was 0.052. In the case of TCGAAGAA, the “PBM E-score” value is reported as -0.0713. For ACATCGAG, the “PBM E-score” value was -0.0351. In the case of TTGTAAAA, the “PBM E-score” value is reported as 0.219. In the case of CTTTATGC, the “PBM E-score” value is reported as 0.109. With GCGTTAAC the “PBM E-score” value was 0.152. With CCCTCCAA the “PBM E-score” value was -0.0901. With AAGTGCAT the “PBM E-score” value was 0.004. For ACTATCTG, the “PBM E-score” value was -0.0209. ACCAGAAA was tested, and the “PBM E-score” value was 0.0364. With AGGCTCAT the “PBM E-score” value was -0.243. For GAGGGCCC, the “PBM E-score” value was -0.272. AAGCGCCT was tested, and the “PBM E-score” value was -0.0906. In the case of CGAATTTA, the “PBM E-score” value is reported as 0.136. In the case of GCAATGTA, the “PBM E-score” value is reported as 0.0481. ACCCCTGC was tested, and the “PBM E-score” value was -0.293. With TAGGCATA the “PBM E-score” value was 0.0333. GCATTGGC was tested, and the “PBM E-score” value was -0.192. With CACTTTGA the “PBM E-score” value was -0.123. ACTAATCC was tested, and the “PBM E-score” value was 0.0891. In the case of TGGTACAA, the “PBM E-score” value is reported as 0.0741. For CGGGAGGC, the “PBM E-score” value was -0.392. ATTGGATC was tested, and the “PBM E-score” value was 0.00029. With AACCGCGG the “PBM E-score” value was 0.164. For CTGAGTTA, the “PBM E-score” value was -0.0606. For TATTATGA, the “PBM E-score” value was 0.203. In the case of GCCTGCCC, the “PBM E-score” value is reported as -0.297. CCTACAAC was tested, and the “PBM E-score” value was 0.125. In the case of GCACGTCA, the “PBM E-score” value is reported as -0.158. With ATTTGTAG the “PBM E-score” value was 0.117. ATCACGTA was tested, and the “PBM E-score” value was 0.311. In the case of GCCACACC, the “PBM E-score” value is reported as -0.0206. With ACCAAAGC the “PBM E-score” value was -0.136. In the case of AGGGTGGG, the “PBM E-score” value is reported as 0.079. In the case of ACGCGTGC, the “PBM E-score” value is reported as 0.0228.
